Laboratory results: PubChem BioAssay AID652272 (Drosophila RNAi Screening Center, 2013)
The deposit covers about 21,000 reagents; below is an unselected part of those that have a named target and a result. In the full data, 503 (2.4%) were called active. 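Raw plate light values, not normalised; calls rest on replicate z-scores that were not deposited; hits include reporter decreases as well as increases.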 A number with no mark means an inactive call. A plus sign joins genes that one reagent is predicted to hit. No sequences are given here. Not given: the amount of reagent, the time to read-out.

Screen: 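Genome-wide knock-down search for components of Hedgehog signalling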 (primary screen)
Cell system: Drosophila clone 8 (Cl8) cells
Reagent: long dsRNA against Drosophila genes
Measurement: 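Firefly light from a Hedgehog-responsive ptc promoter reporter and Renilla reference light, both read on a plate reader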
Direction: firefly Hh reporter signal: higher = more ptc reporter light; Renilla reference signal: higher = more Renilla control light
Rule for the call: 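Called a hit if the two-replicate mean z-score lies below -2 or above +3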
Meaning of the calls: active = hit: reporter lowered or raised; inactive = not a hit

| gene | dsRNA | firefly Hh reporter signal, replicate 1 | firefly Hh reporter signal, replicate 2 | firefly Hh reporter signal, replicate 3 | Renilla reference signal, replicate 1 | Renilla reference signal, replicate 2 |
| --- | --- | --- | --- | --- | --- | --- |
| Cyt-c-d | DRSC03309 | 89718 | 56515 | – | 2089 | 5348 |
| CG42337 | DRSC11686 | 80266 | 98613 | – | 2711 | 2834 |
| CG42337 | DRSC11687 | 25430 (active) | 23972 | – | 1104 | 1081 |
| Acsx1R | DRSC14339 | 7.00e5 | 1.19e5 | – | 35355 | 3693 |
| CG14132 | DRSC10136 | 68865 | 45719 | 74325 | 4833 | 5788 |
| Tsen54 | DRSC10527 | 89316 | 30859 | 45716 | 4037 | 4409 |
| CG8565 | DRSC20112 | 81931 | 2.17e5 | – | 2780 | 9242 |
| dar1 | DRSC08049 | 88347 | 3.02e5 | – | 2787 | 11094 |
| dar1 | DRSC08233 | 91898 | 53400 | – | 2615 | 4577 |
| Tmem214 | DRSC02924 | 94091 | 84966 | – | 2617 | 5914 |
| Tmem214 | DRSC02925 | 1.34e5 | 78688 | – | 3081 | 5781 |
| PpD5 | DRSC04641 | 1.02e5 | 56229 | – | 2980 | 5264 |
| CG18473 | DRSC16381 | 1.22e5 | 1.07e5 | – | 3267 | 2582 |
| CG10029 | DRSC12498 | 1.38e5 | 1.63e5 | – | 5192 | 4967 |
| Hmgs | DRSC06866 | 73253 | 56256 | – | 2005 | 4192 |
| Orcokinin | DRSC04202 | 1.14e5 | 65200 | – | 3091 | 6154 |
| ms(3)76Ba | DRSC10091 | 82300 | 83459 | – | 3153 | 2155 |
| GstS1 | DRSC07436 | 92368 | 1.42e5 | – | 4480 | 4762 |
| CG31445 | DRSC14443 | 72499 | 1.01e5 | – | 1787 | 2596 |
| nudE | DRSC09000 | 1.64e5 | 3.09e5 | – | 4901 | 12659 |
| nudE | DRSC10962 | 30636 | 42573 | 52762 | 3187 | 3296 |
| CG9815 | DRSC04567 | 83714 | 36300 | – | 2277 | 3965 |

Look-ups from above.
GstS1 [DRSC07436], Renilla reference signal, replicate 1 → 4480
Orcokinin [DRSC04202], firefly Hh reporter signal, replicate 2: 65200

Additional results follow:
| gene | dsRNA | firefly Hh reporter signal, replicate 1 | firefly Hh reporter signal, replicate 2 | firefly Hh reporter signal, replicate 3 | Renilla reference signal, replicate 1 | Renilla reference signal, replicate 2 |
| --- | --- | --- | --- | --- | --- | --- |
| asRNA:CR31144 + RpL3 | DRSC16834 | 21799 (active) | 51004 | – | 1461 | 2649 |
| CG13081 | DRSC02185 | 70416 | 44636 | – | 1820 | 3929 |
| tomboy40 | DRSC04918 | 1.48e5 | 89561 | – | 5600 | 3698 |
| MAN1 | DRSC04342 | 1.21e5 | 71654 | – | 4587 | 2867 |
| Tapdelta | DRSC05946 | 77570 | 56976 | – | 3680 | 2116 |
| CG34433 | DRSC15077 | 1.02e5 | 90759 | – | 3756 | 2378 |
| CG14137 | DRSC10142 | 50235 | 70156 | 53525 | 5750 | 3666 |
| TP53INP | DRSC08178 | 2.43e5 | 5.37e5 | 1.56e5 | 9129 | 34192 |
| CG44837 | DRSC10133 | 58875 | 22865 | 22237 | 3369 | 1881 |
| CG44837 | DRSC10558 | 45197 | 22668 | 41143 | 2929 | 3003 |
| CG11384 | DRSC18628 | 77808 | 1.78e5 | – | 1521 | 7542 |
| Blos4 | DRSC10151 | 94038 | 73697 | 77417 | 8041 | 6672 |
| brk | DRSC18745 | 38049 | 2.31e5 | – | 1368 | 9124 |
| CG10702 | DRSC02097 | 52001 | 74122 | – | 2273 | 2956 |
| CG5883 | DRSC10552 | 11433 | 37016 | 38509 | 3829 | 2952 |
| CG9308 | DRSC04539 | 95261 | 52336 | – | 2508 | 4844 |
| tamo | DRSC04446 | 1.23e5 | 98454 | – | 5034 | 4339 |
| lost | DRSC12002 | 2.68e5 | – | – | 5245 | – |
| lost | DRSC12234 | 1.81e5 | 7.63e5 | 1.07e5 | 7158 | 44603 |
| Oatp30B | DRSC02727 | 74001 | 1.22e5 | – | 3332 | 4820 |
| SerRS-m | DRSC14096 | 66646 | 76796 | – | 1564 | 1773 |
| Syx13 | DRSC09836 | 44077 | 40186 | 52192 | 3942 | 3076 |
| laf | DRSC12246 | 74380 | 1.05e5 | – | 3083 | 1984 |
| CG13445 | DRSC09992 | 68578 (active) | – | – | 5869 | 4133 |
| CG13305 | DRSC09975 | 40680 | 35620 | – | 4664 | 2529 |
| Chro | DRSC11630 | 1.25e5 (active) | 92759 | – | 3525 | 2449 |
| Csk | DRSC12861 | 45059 | 1.40e5 | – | 9863 | 2960 |
| Csk | DRSC15223 | 75637 | 58941 | – | 3879 | 2848 |
| CG5793 + Obp93a | DRSC15220 | 5.34e5 | 1.05e5 | – | 36240 | 503 |
| Atg2 | DRSC08273 | 1.17e5 | 75187 | – | 5030 | 2260 |
| lectin-46Cb | DRSC06611 | 1.46e5 | 52666 | – | 3207 | 3861 |
| CG3349 | DRSC10359 | 1.04e5 | – | – | 1468 | 2852 |
| CG13875 | DRSC08345 | 85296 | 44935 | – | 2390 | 3658 |
| Ilp7 | DRSC17895 | 1.04e5 | 2.46e5 | – | 2071 | 10870 |
| CG15059 | DRSC19633 | 1.21e5 | 2.83e5 | – | 3545 | 12667 |
